# Values of other authors, collected in US20240307370A1, “SIGMA RECEPTOR LIGANDS FOR TREATING SARS-COV-2 INFECTION” (University of Florida Research Foundation, Incorporated, priority 2021, published 2024).
# Test system: SARS-CoV-2
# Settings: earlier report, cited from earlier work
structure (smiles),measurement,setting,value
"CN(C)CCOC(c1ccccc1)c1ccccc1 [diphenhydramine, reference compound]",EC50 by plaque reduction assay (recently shown),,17.4 µg/mL
same,EC50,read-out: EC50 by plaque reduction assay (recently shown),59.6 µM
